Holding throughout (experiment): ITC; peptide (0.6–1.2 mM) titrated into protein (50–80 μM); 20 mM Tris–HCl pH 7.5, 150 mM NaCl, 0.5 mM TCEP, 25 °C; MicroCal VP-ITC; both purified
(In ITC the heat of successive injections is recorded.)

Test [1] concerns the target T1, NTMT2 (residues 58–278) D232A mutant (human) (UniProt Q5VVY1).
T1 sequence: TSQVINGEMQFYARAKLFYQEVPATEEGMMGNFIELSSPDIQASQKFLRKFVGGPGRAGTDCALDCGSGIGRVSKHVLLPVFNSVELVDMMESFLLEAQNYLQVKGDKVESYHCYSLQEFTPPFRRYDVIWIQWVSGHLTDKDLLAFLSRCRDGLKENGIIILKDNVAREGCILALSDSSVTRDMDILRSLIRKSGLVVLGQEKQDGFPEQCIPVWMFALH

In test [2] the target is T2, NTMT2 (residues 58–278) D235A mutant (human) (UniProt Q5VVY1).
T2 sequence: T1 sequence with A175D, D178A

The target of test [3] is T3, NTMT2 (residues 58–278) N223A mutant (human) (UniProt Q5VVY1).
T3 sequence: T1 sequence with N166A, A175D

Test [4] addresses human NTMT2 (residues 58–278), wild type (human) (UniProt Q5VVY1).

Here are results for 2 molecules from publication PMC6214909, “An asparagine/glycine switch governs product specificity of human N-terminal methyltransferase NTMT2” (Communications Biology, 2018).

Where a chain is given by its changes, count along the chain named. These are yes or no findings as the source states them, for the method shown.

On to SPKRIA [SPKRIA peptide (N-terminal hexapeptide of RCC1)], for which the binding entry in test [1] is recorded as “no binding (tested: protein 50–80 μM, peptide 0.6–1.2 mM)”; in test [2] it was “no binding (tested: protein 50–80 μM, peptide 0.6–1.2 mM)”; in test [3] it was “no binding (tested: protein 50–80 μM, peptide 0.6–1.2 mM)”.
In the case of APKRIA (mono-methylated alpha-amino group on the first residue A1 (Ame1)) [Ame1PKRIA peptide], the binding result in test [4] is “no binding (tested: protein 50–80 μM, peptide 0.6–1.2 mM)”.
